Source: the supplement of paper PMC3334620
In all, about 33,000 sequences were measured (“E-score (-0.5 to 0.5)”: median about -0.016, highest 2% from about 0.3 on). The list shows a part of the results.

biological target: T1, Yer184c (UniProt P39961); experiment: PBM E-score (8-mer binding enrichment) (E-score (-0.5 to 0.5)); higher = stronger / more preferred TF binding; details: protein concentration: 100 nM; construct: GST-full length
T1 sequence: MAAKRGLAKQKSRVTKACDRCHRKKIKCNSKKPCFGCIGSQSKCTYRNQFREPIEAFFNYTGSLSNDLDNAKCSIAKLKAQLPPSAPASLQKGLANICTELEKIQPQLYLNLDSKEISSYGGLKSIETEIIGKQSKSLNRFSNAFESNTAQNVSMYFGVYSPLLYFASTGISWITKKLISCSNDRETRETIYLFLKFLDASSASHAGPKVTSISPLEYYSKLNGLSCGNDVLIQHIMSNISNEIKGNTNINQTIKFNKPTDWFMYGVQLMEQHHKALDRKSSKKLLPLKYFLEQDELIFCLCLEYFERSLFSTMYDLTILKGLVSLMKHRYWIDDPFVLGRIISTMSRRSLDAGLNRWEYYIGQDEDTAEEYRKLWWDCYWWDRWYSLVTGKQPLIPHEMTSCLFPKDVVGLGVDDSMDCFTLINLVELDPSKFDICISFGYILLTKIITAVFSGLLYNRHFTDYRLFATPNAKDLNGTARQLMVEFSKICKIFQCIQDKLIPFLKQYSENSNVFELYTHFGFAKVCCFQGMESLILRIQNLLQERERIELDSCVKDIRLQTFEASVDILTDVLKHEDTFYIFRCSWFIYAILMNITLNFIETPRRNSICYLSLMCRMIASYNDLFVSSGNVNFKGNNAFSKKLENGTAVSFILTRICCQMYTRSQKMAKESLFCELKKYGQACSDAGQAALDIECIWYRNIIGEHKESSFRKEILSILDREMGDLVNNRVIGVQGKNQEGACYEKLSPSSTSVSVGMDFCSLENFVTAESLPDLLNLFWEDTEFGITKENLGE
Description: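 Universal 'all 10-mer' protein binding microarrays (Agilent AMADID 015681) probed with GST-tagged S. cerevisiae TFs (full-length or DBD) made by in vitro transcription/translation (PURExpress), about 100-200 nM. Bound TF was detected with fluorescent anti-GST. Each ungapped 8-mer (which stands for itself and its reverse complement) is scored by the PBM enrichment score (E-score), a modified Wilcoxon-Mann-Whitney statistic from -0.5 to +0.5, computed with the Universal PBM Analysis Suite. Scale: above 0.35 generally sequence-specific binding.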

Sequence | PBM E-score
GCCCATAA | -0.179
GAATCGAC | 0.0878
CTAACCTA | -0.0678
GAGACTGA | 0.0596
CTGTAGCC | -0.0564
GGGCAGGA | -0.269
AAGCTTCC | -0.00566
ATTATGTC | 0.12
TGTAGCAA | 0.0944
GCTCACCA | -0.239
AATGTGCA | -0.0178
TTGCGAAA | 0.214
AAGTTTCC | 0.17
AGTGAGCG | -0.0615
GTAAATAC | 0.0725
AAGCAAGC | -0.0511
GGAGTGCA | -0.104
GAAAAGTA | 0.139
AGCATGGG | -0.276
GAATGAGA | 0.0212
GATCTGCC | 0.00952
AAAGAATC | -0.108
CCGTTCCC | -0.0128
ACAGCAAT | 0.00743
GAGCAGCA | 0.0177

Sequence | PBM E-score
ATACGATC | 0.0454
AGAGCTAG | -0.144
CTAGAGGA | -0.129
GTAGTCAC | -0.144
ACTTCGAT | -0.00459
CGCTACTC | 0.0848
AAGGGGTG | -0.338
GCCTGCAA | -0.15
AGTGTAGC | -0.0232
CTTAAACC | -0.101
GACAATCA | 0.0312
CCTGTTTA | -0.0933
CACGTGGC | -0.302
CGAGTAAG | 0.184
GGACCACC | -0.116
GGCCCACA | -0.0344
ACAAGTGG | -0.0153
CGATGAAC | 0.0662
CCTCGCGA | -0.163
AGGCGGTC | -0.17
ATCCGTAC | 0.195
ACATGCAA | -0.0621
CTTTCTTC | 0.0894
CGATGTAG | -0.146
AACAAATT | 0.201

Sequence | PBM E-score
CTAACGGA | 0.284
GGAACATA | 0.113
AGAAATAC | 0.0513
AGGATACG | -0.0837
CTTCAAAC | 0.0607
AGCTAGTA | 0.0366
GCGATGAA | 0.00439
AGTATTTA | 0.0217
AGCTAGCT | -0.051
AACACGGT | 0.00361
GAGGAGGC | -0.209
CTGAAACA | 0.133
ATGGTAGA | -0.0295
ACAATGTG | -0.0436
GTTTGAAA | 0.15
CGCTTACC | 0.012
GCCACATA | -0.0485
ACATGCGT | -0.258
CCTTAACG | 0.0316
AAATGCGG | 0.156
CACCACCA | -0.253
GCGCATTA | 0.0247
AGATCTTA | 0.0316
GTTACTCA | 0.139
CTTGCGCA | -0.115

Sequence | PBM E-score
CCGACGGC | 0.106
CGGGATGC | -0.0572
CGTGATGC | -0.132
CGACGGAC | 0.192
GATGTGTA | -0.059
CCATTGGA | -0.0545
CTTTGCGC | 0.12
ATCAAGCG | 0.0135
CATTTCGC | 0.0218
AAAATGAA | -0.0319
ATCATCTG | 0.114
ACCATTTG | 0.0496
AAGATTTC | 0.0599
TCAGACCA | -0.144
GAACTAAA | 0.141
AGCTTGAA | 0.0213
CGTGTCAA | -0.0632
CAGTCCCG | -0.0377
GCGATTAA | 0.0949
AACTATAT | 0.151
AGTAGCTG | -0.0665
CGTGCTAG | -0.273
GAGGCGTA | -0.0801
CGCTTCCA | -0.00448
GTTTGGAA | 0.0444

Sequence | PBM E-score
ATTTTACC | 0.3
GGACAGAC | 0.098
CGCGACAC | -0.0572
ATAGGCGG | 0.0325
CGAGGAAG | -0.0775
AGTGCGTA | -0.242
ACCACGTA | -0.176
GAAGGATC | -0.138
CAATACCG | -0.052
CGTGAGCA | 0.0123
GACAGTGC | 0.0291
ACTTCTCA | -0.0672
CCTTATGA | -0.00762
CCTTTCAG | -0.167
GGAGCGCA | -0.172
CAAGTTAC | 0.113
GGAGATCC | 0.0969
TTGCAAAA | 0.125
AATGTCTA | 0.0815
CACCGACC | -0.0437
CAAGCAAG | -0.0721
AGACCGCA | -0.065
ACTGCGAT | -0.0707
AATGTTAA | -0.0578
CATTTGGA | 0.135

A portion taken from the entries so far:
Sequence | PBM E-score
CTTCAAAC | 0.0607
AGCTAGTA | 0.0366
GCGATGAA | 0.00439
AGTATTTA | 0.0217
AGCTAGCT | -0.051
AACACGGT | 0.00361

4 entries from above, with tabs:
Sequence	PBM E-score
CGATGAAC	0.0662
CCTCGCGA	-0.163
AGGCGGTC	-0.17
ATCCGTAC	0.195

Next records follow.

Sequence | PBM E-score
AGAGTTCA | -0.226
AACATATA | 0.0587
AGGGCTGG | -0.147
CTAAGTTC | 0.0413
CGGGGGGA | -0.373
GACCCGTC | -0.207
CATTTCCG | 0.3
AAGGGTGC | -0.258
TAGTCTCA | -0.0568
ACCCCACA | -0.308
CGTTAGGC | -0.0339
CAAAAAGA | 0.0638
ACCCAGAG | -0.26
CCCGCCAG | -0.0364
CTACGACA | -0.00594
CTCGGAGC | 0.299
AACCTACT | -0.122
AGCTCCAA | -0.0525
CCTGGCAA | -0.158
GGCCTCGA | -0.106
ATTACCGC | 0.174
GTCACTAA | -0.0609
AGGCGCGA | 0.0224
GCTTCCCC | -0.337
ATCAACCC | 0.0588

Sequence | PBM E-score
TCAAGGGA | 0.123
AATTCACA | 0.166
CAACGTTA | 0.0552
GACGGGGC | -0.213
CTACACAC | -0.121
AATAAGCG | -0.146
CCCGTAGC | -0.208
ATAATGGA | 0.0508
CATGATTC | -0.0531
ACACAACC | 0.00216
GTCAGAAA | 0.0635
AATAAAAC | 0.099
GGCAAGTA | 0.0943
CGTGCAGC | -0.0794
GGGGGCCA | -0.261
ATTACTAA | 0.153
ACCCATTC | -0.00104
ATACTATG | 0.0693
ACATGCTG | -0.257
GTATTCCA | 0.0616
CGAAGTGC | 0.112
CCTAGGCG | -0.27
